# From PubChem BioAssay AID2551 (National Center for Advancing Translational Sciences (NCATS), 2010)
# Sequences of proteins named here, by UniProt entry; tags and fusion partners are left off. A change or cut given only in a name is not applied to a line headed by its entry.
# UniProt P51450: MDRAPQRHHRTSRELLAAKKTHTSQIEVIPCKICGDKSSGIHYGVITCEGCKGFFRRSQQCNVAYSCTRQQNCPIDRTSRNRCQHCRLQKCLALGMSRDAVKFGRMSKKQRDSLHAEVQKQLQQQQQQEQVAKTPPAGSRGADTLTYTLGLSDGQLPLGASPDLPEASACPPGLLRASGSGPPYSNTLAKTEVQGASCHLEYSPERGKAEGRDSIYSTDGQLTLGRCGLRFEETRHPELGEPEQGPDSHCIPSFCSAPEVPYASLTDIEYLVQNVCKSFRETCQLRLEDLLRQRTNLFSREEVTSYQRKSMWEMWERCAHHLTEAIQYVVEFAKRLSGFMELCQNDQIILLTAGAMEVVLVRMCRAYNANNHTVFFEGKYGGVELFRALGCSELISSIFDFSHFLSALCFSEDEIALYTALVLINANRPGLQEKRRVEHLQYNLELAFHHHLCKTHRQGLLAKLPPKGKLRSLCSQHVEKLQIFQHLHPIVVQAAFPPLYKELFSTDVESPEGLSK
# Out of some 310,000 compounds screened, about 17,000 (5.5%) were called active. The inconclusive results got no clear call from the source; some entries with a clear call stand among them for comparison. Calls follow the shape of the dose curve; as a rule, active = well fitted inhibition curve with a large enough effect; inconclusive = small, poorly fitted or top-dose-only effect, or effect the other way; inactive = no such curve, though single readings can be large or run the other way. Potencies of inconclusive entries are doubtful fits and often do not repeat.
# Target: Nuclear receptor ROR-gamma (Mus musculus) (UniProt P51450)
# Assay: qHTS for inhibitors of ROR gamma transcriptional activity; also: nearly all actives have a fitted effect of over 60% in size
# Settings: Drosophila S2 Gal4-RORgamma UAS-luciferase reporter, 20 h; activity change, negative = inhibition: at 53.6 µM (top of the series)
# Method in brief: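 A Gal4/UAS one-hybrid system in insect cells: metallothionein-promoter Gal4–ROR gamma fusion plus Photinus luciferase reporter. Copper sulfate 700 uM final, 20 hr ambient incubation, luminescent detection after 10 min with reagent.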
# % is scaled to controls: 0 for no effect and ±100 for the full control effect; potency is read from the fitted curve at half-maximal effect.
SMILES,"activity change, negative = inhibition",Potency
Cc1ccccc1CSc1[nH]c(=O)ncc1C,inactive: -0.171%,–
Cc1cc2cc(CN(Cc3ccco3)C(=S)NCC3CCCO3)c(=O)[nH]c2cc1C (stereo not given),–,"inconclusive: 22.4 µM [activator, single point]"
O=C(NCCc1ccccc1)c1ccc(NC(=O)c2cccnc2)cc1,–,"inconclusive: 11.2 µM [activator, partial curve]"
COc1cc(/C=C(/C#N)c2ccccc2)ccc1Oc1ccc([N+](=O)[O-])cn1,–,"inconclusive: 35.5 µM [activator, single point]"
CC(C)[C@H](NC(=O)OC(C)(C)C)c1nnc(S(=O)(=O)Cc2c(F)cccc2Cl)o1,–,active: 4.47 µM
Cc1sc(N)nc1C12CC3CC(CC(C3)C1)C2,–,"inconclusive: 35.5 µM [inhibitor, single point]"
CC(C)CNC(=O)c1cccc(NC(=O)COc2ccc([N+](=O)[O-])cc2)c1,–,"inconclusive: 35.5 µM [activator, single point]"
Nc1c(C(O)(C(F)(F)F)C(F)(F)F)cc(C(O)(C(F)(F)F)C(F)(F)F)c2ccccc12,–,"inconclusive: 7.94 µM [inhibitor, partial curve]"
CCS(=O)(=O)c1ccc2oc(SCC(=O)NCCc3ccc(OC)cc3)nc2c1,–,"inconclusive: 22.4 µM [activator, single point]"
Cc1cc(C(=O)Nc2nccs2)c2cc(F)ccc2n1,–,"inconclusive: 35.5 µM [inhibitor, single point]"
Cc1[nH]c2ccccc2c1/C=C/c1nc2ccccc2c(=O)n1CCO,–,"inconclusive: 3.55 µM [activator, full curve]"
Cc1ccc(NC(=O)c2cccc(OCc3c(C)noc3C)c2)c(C)c1,–,"inconclusive: 17.8 µM [activator, single point]"
CCOc1ccc(NS(=O)(=O)c2cc(NC(=O)CCS(=O)(=O)c3ccc(C)cc3)ccc2OC)cc1,–,"inconclusive: 10 µM [activator, partial curve]"
Cc1[nH]c2ccccc2c(=O)c1C(=O)/C=C/c1ccccc1,–,active: 5.62 µM
Cc1ccsc1/C=N/Nc1nc2ccccc2[nH]1,–,active: 1.41 µM
Cc1ccc(CNCC(O)(c2ccccc2)c2ccccc2)cc1,–,"inconclusive: 11.2 µM [activator, partial curve]"
O=[N+]([O-])c1ccc2nc(SCc3cn4cc(Cl)ccc4n3)[nH]c2c1,–,"inconclusive: 22.4 µM [inhibitor, single point]"
O=C(Nc1cccc([N+](=O)[O-])c1)c1ccc(CSc2ccccc2)cc1,inactive: 31%,–
Cc1ccc(/C=C2/SC(=S)N(CCCC(=O)Nc3cc([N+](=O)[O-])ccc3O)C2=O)cc1,–,active: 7.94 µM
CN(C(=O)CSc1nnnn1-c1ccccc1)C1CCS(=O)(=O)C1 (stereo not given),inactive: 12.2%,–
COCCCN1C(=O)c2[nH]nc(-c3cc(C)cc(C)c3O)c2C1c1ccc(O)c(OC)c1 (stereo not given),–,"inconclusive: 2.51 µM [inhibitor, full curve]"
CN(C)CC(CCC(CN(C)C)C(O)(c1ccccc1)c1ccccc1)C(O)(c1ccccc1)c1ccccc1 (stereo not given),–,"inconclusive: 15.8 µM [inhibitor, single point]"
N#Cc1nc(-c2ccccc2Cl)oc1N1CCOCC1,inactive: -18.6%,–
Cc1cccc(C)c1NC(=O)c1ccc(-n2cncn2)nc1,inactive: -17%,–

SMILES,"activity change, negative = inhibition",Potency
CC(C)CCNC(=S)Nc1ccc([N+](=O)[O-])cc1,–,"inconclusive: 25.1 µM [inhibitor, single point]"
Cc1cn(CC2COC(C)(C)O2)c(=O)[nH]c1=O (stereo not given),inactive: 15.1%,–
CC1CN(C(=O)c2ccc(COc3ccc(C(C)C)cc3)o2)CC(C)O1 (stereo not given),–,"inconclusive: 2 µM [activator, partial curve]"
NNC(=O)c1csc(-c2ncc(C(F)(F)F)cc2Cl)n1,–,"inconclusive: 20 µM [inhibitor, single point]"
CSc1nc(Cl)c(Cc2ccc(OC(C)C)cc2)c(N(C)C)n1,–,"inconclusive: 25.1 µM [activator, partial curve]"
COc1ccc(-c2nc(NC(=O)CSCCO)sc2C)cc1,–,"inconclusive: 12.6 µM [activator, single point]"
CC(NC(=O)c1ccc(N(C)C)c([N+](=O)[O-])c1)c1ccc(-n2ccnc2)cc1 (stereo not given),–,"inconclusive: 11.2 µM [activator, partial curve]"
Cc1n[nH]c(=S)n1/N=C/c1ccc(-c2ccccc2[N+](=O)[O-])o1,–,"inconclusive: 8.91 µM [inhibitor, partial curve, poor fit]"
Cc1ccccc1C(=O)Nc1ccc2nc3n(c(=O)c2c1)CCC3,–,"inconclusive: 1.58 µM [inhibitor, partial curve, poor fit]"
CCOC(=O)c1ccc(-c2c(C(=O)OCC)oc3cc(O)c(CC)cc3c2=O)o1,–,active: 3.16 µM
OC[C@H](O)[C@H](O)[C@@H](O)[C@@H](O)[C@@H]1SC(c2ccccc2)=NN1c1ccccc1,–,active: 8.91 µM
CCOC(=O)c1c(-c2ccc(-c3ccccc3)cc2)csc1NC(=O)C1C2CCC(O2)C1C(=O)O (stereo not given),–,"inconclusive: 11.2 µM [activator, single point]"
O=C(Nc1nc2c(s1)CCCC2)c1cc(-c2ccccc2)nc2ccccc12,–,"inconclusive: 8.91 µM [inhibitor, partial curve]"
O=C(Nc1ccc(NC(=O)c2ccco2)nc1)c1ccccn1,–,"inconclusive: 14.1 µM [inhibitor, single point]"
COc1ccc(C(=O)NCCn2cc(SCC(=O)NCc3ccco3)c3ccccc32)cc1,–,active: 10 µM
Cc1cccc(-n2ncc3c2CCCC3NC(=O)C2(C(N)=O)CC2)c1C (stereo not given),–,"inconclusive: 20 µM [inhibitor, single point]"
O=C(CS(=O)CC(=O)Nc1ccccc1-c1ccccc1)Nc1ccc(F)cc1 (stereo not given),inactive: 46.2%,–
COc1ccc2c(c1)NC(=O)CC(c1ccccc1)=N2,inactive: 12%,–
Cc1cccc(CN2CCCC(C(=O)Nc3ccc(-c4cscn4)cc3)C2)c1 (stereo not given),inactive: 30.6%,–
COc1cnc(-c2ccccn2)nc1Sc1c(Cl)cccc1Cl,–,active: 3.16 µM
Cc1c(C(=O)Nc2ccccc2)csc1-c1ccccc1,–,"inconclusive: 20 µM [inhibitor, single point]"
CC(C)(C)c1nn(-c2ccccc2)c2[nH]c(=O)c(CNCc3ccc4c(c3)OCO4)cc12,–,"inconclusive: 7.08 µM [inhibitor, partial curve, poor fit]"
COC(=O)c1ccc(C(=O)OC)c(NC(=O)CCC(=O)O)c1,inactive: 14.2%,–
Cc1cccc(-c2nc(C#N)c(NCC3CCCO3)o2)c1 (stereo not given),inactive: 35.8%,–

SMILES,"activity change, negative = inhibition",Potency
Cc1ccc(CC(=O)Nc2nnc(-c3ccc(F)cc3)o2)c(C)c1,–,active: 2.51 µM
O=C(CN1C(=O)C2CC=CCC2C1=O)N1CCN(c2ccc([N+](=O)[O-])cc2)CC1 (stereo not given),–,"inconclusive: 14.1 µM [activator, single point]"
COCCNC(=O)/C(C#N)=C/c1ccc(OCC(=O)NC2CCCCC2)cc1,inactive: 22.8%,–
CCOC(=O)N1CCC(=NNc2nc3ccccc3s2)CC1,–,"inconclusive: 35.5 µM [inhibitor, single point]"
Fc1ccccc1CNc1cc(Cl)cc(Cl)c1,–,"inconclusive: 31.6 µM [activator, single point]"
N#Cc1nc(-c2ccco2)oc1N1CCN(c2cccc(Cl)c2)CC1,–,"inconclusive: 31.6 µM [activator, single point]"
COC(=O)[C@@]1(Cc2ccc(F)cc2)[C@H]2c3cc(C(=O)N4CCCC4)n(CCc4ccccn4)c3C[C@H]2CN1C(=O)c1ccccc1,–,"inconclusive: 11.2 µM [activator, partial curve]"
COc1cccc2[nH]c3c(N4CCC(C)CC4)ncnc3c12,inactive: -3.16%,–
CC1(C)C2CCC1(C)C(NC(=O)/C=C/c1ccccc1)C2 (stereo not given),–,"inconclusive: 31.6 µM [inhibitor, single point]"
CC(C)c1ccc(OCC(=O)NNC(=S)NC(=O)C2CC2)cc1,–,"inconclusive: 22.4 µM [inhibitor, single point]"
COCCN(Cc1cc2cc3c(cc2nc1Cl)OCO3)C(C)=O,inactive: -0.332%,–
Cc1ccc(N(C)C(=O)c2cnn(-c3ccccc3)c2C)c(C)c1,–,"inconclusive: 0.282 µM [activator, single point]"
CC(Oc1ccc(Cl)cc1Cl)c1nc(-c2ccc(NC(=O)c3ccncc3)cc2)no1 (stereo not given),–,"inconclusive: 35.5 µM [inhibitor, single point]"
COc1ccc(CNC(=O)C(=O)c2cn(CC(=O)N3CCCC3)c3ccccc23)cc1,inactive: 18.4%,–
Cc1ccc(OCCCC(=O)Nc2ccc(S(=O)(=O)Nc3cc(C)nc(C)n3)cc2)cc1,–,"inconclusive: 15.8 µM [activator, single point]"
O=C(CCNC(=O)c1ccccc1Cl)Nc1nc(-c2ccc3ccccc3c2)cs1,–,"inconclusive: 10 µM [activator, partial curve]"
CCOC(=O)c1nn(-c2ccc3c(c2)CCN3C(C)=O)cc1O,–,"inconclusive: 17.8 µM [inhibitor, single point]"
Cc1cc(Cl)ccc1OCCCC(=O)Nc1cccc(-n2cnnn2)c1,inactive: 35%,–
CCCC(=O)NC(=S)N1CCN(c2ccc([N+](=O)[O-])cc2)CC1,–,active: 3.16 µM
CC(C)N(Cc1nc(COc2ccccc2)no1)Cc1nccn1C,–,"inconclusive: 22.4 µM [inhibitor, single point]"
CCN(CC)c1ccc(/C=N/NC(=O)CN2CCCc3ccccc32)cc1,–,"inconclusive: 14.1 µM [inhibitor, single point]"
Cc1ccc(SCCC(=O)N/N=C/c2cccnc2)cc1,–,"inconclusive: 20 µM [activator, single point]"

# 3 records drawn at random from those above:
SMILES,"activity change, negative = inhibition",Potency
O=C(CN1C(=O)C2CC=CCC2C1=O)N1CCN(c2ccc([N+](=O)[O-])cc2)CC1 (stereo not given),–,"inconclusive: 14.1 µM [activator, single point]"
N#Cc1nc(-c2ccco2)oc1N1CCN(c2cccc(Cl)c2)CC1,–,"inconclusive: 31.6 µM [activator, single point]"
CCOC(=O)c1nn(-c2ccc3c(c2)CCN3C(C)=O)cc1O,–,"inconclusive: 17.8 µM [inhibitor, single point]"
